“And” between values parts separate entries of the source, which are not always exact repeats. Equal values may be shown once. Hit rate of the full screen: of about 300,000 compounds, about 5,400 (1.8%) were called active. The inconclusive results got no clear call from the source; some entries with a clear call stand among them for comparison. Calls come from the whole dose curve; tested in HEK293 cells. Potencies of inconclusive entries are doubtful fits and often do not repeat.
Experiment: qHTS for inhibitors of binding or entry into cells for Marburg Virus
Details: Marburg virus pseudotyped entry inhibition, cell reporter; activity change, negative = inhibition: at 37.8 µM (top of the series) unless noted
% is set by controls: 0 for no effect and ±100 for the full control effect; potency is the fitted concentration of half-maximal effect.

SMILES | activity change, negative = inhibition | Potency
CCCN1C(=O)/C(=C\C=C2\N(CC)c3ccccc3C2(C)C)SC1=S | inactive: 17.2% [at 46.1 µM] | 
O=C(Nc1ccc2ccccc2c1)c1ccccc1[N+](=O)[O-] |  | inconclusive: 7.08 µM [activator, partial curve, poor fit]
O=C(Nc1nc2c(s1)CCCC2)c1cccnc1 | inactive: 2.65% | 
COc1ccccc1NC(=O)C(C)OC(=O)C1CCN(S(=O)(=O)c2ccc(C)c(C)c2)CC1 (stereo not drawn) |  | inconclusive: 35.5 µM [inhibitor, single point]
COc1ccc(Cl)cc1NC(=O)Cn1ncc2c3ccccc3n(C)c2c1=O | inactive: -4.52% [at 46.1 µM] | 
Cc1nc(-c2nc(-c3c(C(=O)NN)noc3C)cs2)cs1 |  | inconclusive: 1 µM [inhibitor, full curve, poor fit]
CC(=O)N1CCN(c2ccccc2NC(=O)COc2ccc(Cl)cc2Cl)CC1 |  | inconclusive: 15.8 µM [inhibitor, single point]
COc1ccc(-c2nnc(N(C)C(=O)c3cccnc3)s2)cc1 | inactive: -1.52% | 
CCOC(=O)c1nc(-c2ccccc2)oc1N1CCOCC1 |  | inconclusive: 1.12 µM [inhibitor, full curve, poor fit]
O=C(N/N=C/c1ccc(N2CCOCC2)cc1)c1ccccc1OCCOc1ccccc1 |  | inconclusive: 25.1 µM [inhibitor, single point]
Brc1ccc(Cn2c(-c3cncs3)nc3ccccc32)cc1 |  | inconclusive: 1.83 µM [activator, partial curve, poor fit]
Cc1cc(/C=C(\C#N)C(=O)Nc2ccccc2)c(C)n1-c1cccnc1 |  | inconclusive: 31.6 µM [activator, single point]
CCOc1cccc(-c2c(C(=O)N/N=C/c3ccsc3)nnn2-c2nonc2N)c1 | inactive: 26.3% [at 46.1 µM] | 
OC(C#CCN1CCCC1)(c1ccccc1)c1cccnc1 (stereo not drawn) | inactive: -2.99% [at 46.1 µM] | 
O=C(Cc1ccc(F)cc1)Nc1c(C(=O)N2CCN(c3ncccn3)CC2)oc2ccccc12 |  | inconclusive: 3.16 µM [inhibitor, single point]
CCn1cc(Br)c(C(=O)Nc2cccc(SC)c2)n1 | inactive: -4.51% | 
O=C1CC(Cc2ccccc2)C(=O)N1Cc1ccco1 (stereo not drawn) | inactive: -11.8% | 
C[C@@H]1C[C@H]2[C@@H](Cc3ccccc3)C(=O)N3[C@@H](C[C@@H](C)[C@@H]3c3ccccc3)[C@@H](Cc3ccccc3)C(=O)N2[C@H]1c1ccccc1 |  | inconclusive: 2.66 µM [inhibitor, partial curve, poor fit]
COc1cc(NC(=O)CCc2c(C)nn(-c3ccc(N4CCOCC4)nn3)c2C)cc(OC)c1OC |  | inactive
N/C(=N\OC(=O)CCC1CCCC1)c1ccccc1 |  | inconclusive: 5.01 µM [activator, full curve]
COc1ccccc1NC(=O)CSc1nnc(-c2ccccc2C)o1 |  | inconclusive: 2.24 µM [activator, full curve, poor fit]
CN(C(=O)CN1C(=O)c2ccccc2S1(=O)=O)C1CCCCC1 |  | inconclusive: 20 µM [inhibitor, partial curve, poor fit]
Cn1cnnc1SCC(=O)c1c[nH]c2ccccc12 |  | inconclusive: 14.6 µM [activator, partial curve, poor fit]

Sorted by molecular weight (ascending): some entries from above.
SMILES | activity change, negative = inhibition | Potency
O=C(Nc1nc2c(s1)CCCC2)c1cccnc1 | inactive: 2.65% | 
COc1ccccc1NC(=O)CSc1nnc(-c2ccccc2C)o1 |  | inconclusive: 2.24 µM [activator, full curve, poor fit]
CCCN1C(=O)/C(=C\C=C2\N(CC)c3ccccc3C2(C)C)SC1=S | inactive: 17.2% [at 46.1 µM] | 
COc1ccc(Cl)cc1NC(=O)Cn1ncc2c3ccccc3n(C)c2c1=O | inactive: -4.52% [at 46.1 µM] | 
CCOc1cccc(-c2c(C(=O)N/N=C/c3ccsc3)nnn2-c2nonc2N)c1 | inactive: 26.3% [at 46.1 µM] | 
O=C(Cc1ccc(F)cc1)Nc1c(C(=O)N2CCN(c3ncccn3)CC2)oc2ccccc12 |  | inconclusive: 3.16 µM [inhibitor, single point]

Continued:

SMILES | activity change, negative = inhibition | Potency
COc1ccc(NC(=S)N(CCc2c(C)[nH]c3ccccc23)Cc2ccco2)cc1 |  | active: 13 µM
O=[N+]([O-])c1ccccc1CN1CCN(Cc2c[nH]c3ccccc23)CC1 |  | inconclusive: 10 µM [inhibitor, partial curve, poor fit]
NNC(=O)C1=NN=C(C23CC4CC(CC(C4)C2)C3)C1 | inactive: 16.8% [at 46.1 µM] | 
Cc1nc2cc(NC(=O)Nc3cccc4ccccc34)ccc2n1C |  | inconclusive: 3.55 µM [activator, full curve, poor fit]
Cc1ccccc1NC(=O)N1C2CCCC1CC(NC(=O)C(C)(C)C)C2 (stereo not drawn) |  | inconclusive: 0.0891 µM [activator, full curve, poor fit]
CC1=C(C(=O)OCc2ccc(C)cc2)C(c2ccccc2F)CC(=O)N1 (stereo not drawn) |  | inconclusive: 31.6 µM [inhibitor, single point]
CC(NC(=S)Nc1ccc(S(=O)(=O)N2CCOCC2)cc1)C1CC2CCC1C2 (stereo not drawn) |  | inconclusive: 29.1 µM [inhibitor, single point]
CCCN1CCC(NC(=O)c2cccc(Oc3ccccc3)c2)CC1 |  | inconclusive: 6.31 µM [inhibitor, partial curve]
O=C(CSc1nnc(Nc2ccccc2)s1)Nc1cccc(S(=O)(=O)N2CCCCC2)c1 |  | inconclusive: 6.31 µM [inhibitor, single point]
O=C1/C(=C/c2cccc([N+](=O)[O-])c2)CCc2ccccc21 |  | inconclusive: 10 µM [inhibitor, partial curve, poor fit]
CNS(=O)(=O)c1cccc(C(=O)OCc2cc(=O)oc3c(C)c(O)ccc23)c1 |  | inconclusive: 11.2 µM [inhibitor, partial curve, poor fit]
O=C(Nc1ccccc1)N1CCC(c2nc(-c3ccc(S(=O)(=O)N4CCOCC4)cc3)no2)CC1 |  | inconclusive: 1.16 µM [inhibitor, partial curve, poor fit]
CSc1nc2nccc(-c3ccc(Oc4ccccc4)cc3)n2n1 |  | inconclusive: 12.6 µM [inhibitor, partial curve, poor fit]
O=C(Nc1nc2ccc(Cl)cc2s1)c1ccc(N2CCCCC2)c([N+](=O)[O-])c1 |  | inconclusive: 35.5 µM [inhibitor, single point]
COc1ccc(-c2csc3ncnc(N4CCN(S(=O)(=O)c5ccc(C)cc5)CC4)c23)cc1 |  | inconclusive: 35.5 µM [inhibitor, single point]
C#CCOc1ccc2c3c(c(=O)oc2c1)CCCC3 | inactive: 7.35% [at 46.1 µM] | 
COc1cc2c(=O)c(C(=O)c3ccc(C)c(C)c3)cn(Cc3ccccc3F)c2cc1OC |  | inconclusive: 35.5 µM [inhibitor, single point]
COc1ccc(/C=C/C(=O)OCC(=O)NCc2ccco2)c(OC)c1 | inactive: 8.52% [at 46.1 µM] | 
Clc1ccc(OCCN2CCCCC2)cc1Cl |  | inconclusive: 0.708 µM [activator, full curve]
Cc1ccc(-n2c(SCC(=O)Nc3ncc(Cl)cc3Cl)nc3ccccc32)cc1 |  | inconclusive: 0.0092 µM [inhibitor, full curve, poor fit]
Cc1ccc(C2C(C#N)=C(N)Oc3n[nH]c(-c4cccnc4)c32)o1 (stereo not drawn) | inactive: 18.8% [at 46.1 µM] | 
CCOC(=O)c1ccc(N2C(=O)c3[nH]nc(-c4ccc(C)cc4)c3C2c2ccc(O)c(OCC)c2)cc1 (stereo not drawn) |  | inconclusive: 22.4 µM [inhibitor, single point]
O=C(Nc1cccs1)Nc1c(F)c(F)cc(F)c1F | inactive: 11.3% | 

SMILES | activity change, negative = inhibition | Potency
COc1cc(OC)c(C(=O)OCC(=O)c2cc(C)n(CC3CCCO3)c2C)cc1OC (stereo not drawn) |  | inconclusive: 3.98 µM [activator, single point]
Cc1ccc(NC(=O)CSc2nnc(CNC(=O)c3ccccc3F)o2)cc1Cl | inactive: 21.5% [at 46.1 µM] | 
Cc1ccc2sc(N(CCN(C)C)C(=O)c3ccc(S(=O)(=O)N4CC(C)OC(C)C4)cc3)nc2c1C (stereo not drawn) |  | inconclusive: 22.4 µM [inhibitor, single point]
C#CCn1c(=NC(=O)c2cc(-c3cccs3)nc3ccccc23)sc2cc(S(N)(=O)=O)ccc21 |  | inconclusive: 15.8 µM [inhibitor, single point]
CC1CC1C(=O)OCC(=O)Nc1ccc(N=Nc2ccccc2)cc1 (stereo not drawn) |  | inconclusive: 0.651 µM [activator, single point]
CCOC(=O)NNC1CC(=O)N(c2ccc(OC)cc2)C1=O (stereo not drawn) | inactive: -28.7% | 
ON=C1c2ccccc2-c2ccc(O)cc21 | inactive: -0.0215% | 
CC(=O)OCC1=C(C(=O)O)N2C(=O)[C@@H](NC(=O)CSc3ccncc3)[C@H]2SC1 |  | inactive and inconclusive: 35.5 µM [inhibitor, single point]
COc1ccccc1CNC(=O)c1ccc(CS(=O)(=O)c2c(Cl)cccc2Cl)o1 |  | inconclusive: 35.5 µM [inhibitor, single point]
CCOC(=O)c1cc(OC(=O)c2cccs2)n(-c2ccccc2)n1 | inactive: 15.9% | 
COc1cccc(-c2nc(S(=O)(=O)c3ccccc3)c(N3CCCCC3)o2)c1 | inactive: 2.82% [at 46.1 µM] | 
Cc1ccccc1CN(CC(=O)Nc1cccc([N+](=O)[O-])c1)S(=O)(=O)c1ccc(Cl)cc1 |  | inconclusive: 11.2 µM [inhibitor, partial curve, poor fit]
COCC1CCCN(C(=O)c2ccc3nc(Cc4cccc(Cl)c4)oc3c2)C1 (stereo not drawn) | inactive: 19.8% | 
CCn1c(C(C)NC(=O)c2cccs2)n[nH]c1=S (stereo not drawn) |  | inconclusive: 35.5 µM [activator, single point]
O=C(CN1CCN(c2ccccc2)CC1)NC(=O)NCc1ccco1 | inactive: 0.298% | 
Cc1ccc(NC(=S)NNC(=O)Nc2ccccc2)cc1 |  | inconclusive: 1 µM [activator, partial curve, poor fit]
COCCNc1nnc(SCC(=O)N2CCN(S(=O)(=O)c3ccccc3)CC2)s1 |  | inconclusive: 29.1 µM [activator, single point]
COc1cccc(C(=O)CN2C(=O)C(C)(C)Oc3ccc(C(=O)N4CCCCCC4)cc32)c1 | inactive: -9.04% | 
CC[n+]1ccc(/C=C/c2ccc(N(C)C)cc2)c2ccccc21 |  | inconclusive: 1.26 µM [inhibitor, full curve, poor fit]
O=C(CSc1n[nH]c(-c2ccccn2)n1)Nc1ccc(F)cc1 |  | inconclusive: 20 µM [inhibitor, single point]
COc1ccc(NC2=NC3(CCCCC3)N=C(N)N2)cc1 | inactive: 22.9% | 
CCOc1cccc(Nc2nn(-c3ccc(OC(F)(F)F)cc3)nc2C(C)=O)c1 | inactive: -0.971% [at 46.1 µM] | 

Source: PubChem BioAssay AID540276 (National Center for Advancing Translational Sciences (NCATS), 2011)
